Measurements taken from the supplement of paper PMC10849652.
This is one part of the list.

By UniProt entry, the sequences of proteins in these tests, tags left out. Where a name states a change or a piece, a line headed by the entry shows the natural chain unless it says otherwise.
UniProt Q9BQI0: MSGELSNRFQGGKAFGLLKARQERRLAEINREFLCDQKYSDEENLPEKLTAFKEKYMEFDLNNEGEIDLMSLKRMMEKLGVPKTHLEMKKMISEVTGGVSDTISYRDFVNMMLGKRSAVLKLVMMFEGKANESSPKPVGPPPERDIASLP
UniProt Q9NRZ5: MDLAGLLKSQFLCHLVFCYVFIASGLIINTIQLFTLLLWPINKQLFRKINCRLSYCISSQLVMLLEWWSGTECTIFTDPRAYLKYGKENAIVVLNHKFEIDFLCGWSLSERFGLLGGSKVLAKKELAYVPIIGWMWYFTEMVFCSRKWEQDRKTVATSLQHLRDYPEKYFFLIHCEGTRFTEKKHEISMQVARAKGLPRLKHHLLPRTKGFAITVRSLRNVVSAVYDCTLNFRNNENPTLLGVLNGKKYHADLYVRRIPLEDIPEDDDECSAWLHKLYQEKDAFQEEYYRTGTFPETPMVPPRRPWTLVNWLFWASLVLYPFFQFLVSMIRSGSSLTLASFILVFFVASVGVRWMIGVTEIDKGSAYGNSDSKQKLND
UniProt O43572: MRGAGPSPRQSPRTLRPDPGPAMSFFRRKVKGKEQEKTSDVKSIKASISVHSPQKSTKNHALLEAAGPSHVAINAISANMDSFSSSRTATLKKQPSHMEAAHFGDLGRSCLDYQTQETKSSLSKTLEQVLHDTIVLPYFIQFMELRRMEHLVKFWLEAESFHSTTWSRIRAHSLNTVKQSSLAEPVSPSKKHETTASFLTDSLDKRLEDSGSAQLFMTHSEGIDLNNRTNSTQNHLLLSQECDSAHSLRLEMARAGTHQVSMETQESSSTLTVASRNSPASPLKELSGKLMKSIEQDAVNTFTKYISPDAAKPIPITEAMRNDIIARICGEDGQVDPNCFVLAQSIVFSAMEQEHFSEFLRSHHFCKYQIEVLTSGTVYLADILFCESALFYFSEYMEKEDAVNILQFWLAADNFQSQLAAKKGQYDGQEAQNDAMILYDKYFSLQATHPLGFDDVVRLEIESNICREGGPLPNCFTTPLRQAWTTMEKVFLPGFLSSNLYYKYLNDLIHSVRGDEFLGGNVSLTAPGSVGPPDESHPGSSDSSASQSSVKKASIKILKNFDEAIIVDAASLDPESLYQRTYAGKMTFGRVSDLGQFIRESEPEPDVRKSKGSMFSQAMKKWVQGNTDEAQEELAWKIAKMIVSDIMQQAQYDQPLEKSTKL
UniProt Q8WV93: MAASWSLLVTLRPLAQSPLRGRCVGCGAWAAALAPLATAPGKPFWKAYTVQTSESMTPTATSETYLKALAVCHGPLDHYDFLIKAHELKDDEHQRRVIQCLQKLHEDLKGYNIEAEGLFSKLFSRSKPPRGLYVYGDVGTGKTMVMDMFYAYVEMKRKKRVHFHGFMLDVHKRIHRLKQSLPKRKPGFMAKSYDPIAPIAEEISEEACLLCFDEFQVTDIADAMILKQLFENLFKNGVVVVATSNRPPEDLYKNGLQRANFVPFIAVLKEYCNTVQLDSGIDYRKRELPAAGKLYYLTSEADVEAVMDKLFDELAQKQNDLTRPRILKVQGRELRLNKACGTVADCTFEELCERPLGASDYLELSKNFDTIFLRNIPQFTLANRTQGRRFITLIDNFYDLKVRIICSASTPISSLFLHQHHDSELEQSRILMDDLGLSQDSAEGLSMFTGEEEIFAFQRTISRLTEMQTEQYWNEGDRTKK
UniProt P30566: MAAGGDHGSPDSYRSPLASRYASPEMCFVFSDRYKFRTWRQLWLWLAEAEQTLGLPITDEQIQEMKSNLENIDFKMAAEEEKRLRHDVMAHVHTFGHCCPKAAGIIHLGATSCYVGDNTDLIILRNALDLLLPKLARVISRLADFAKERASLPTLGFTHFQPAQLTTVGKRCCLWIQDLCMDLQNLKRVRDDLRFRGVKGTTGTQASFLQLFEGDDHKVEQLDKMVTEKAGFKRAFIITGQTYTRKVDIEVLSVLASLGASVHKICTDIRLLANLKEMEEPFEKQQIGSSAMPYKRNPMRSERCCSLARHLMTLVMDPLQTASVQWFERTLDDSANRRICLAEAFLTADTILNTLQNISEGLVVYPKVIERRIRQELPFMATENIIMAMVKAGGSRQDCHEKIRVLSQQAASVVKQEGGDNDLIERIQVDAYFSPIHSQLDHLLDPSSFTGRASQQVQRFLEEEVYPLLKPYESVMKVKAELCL
UniProt Q8TED9: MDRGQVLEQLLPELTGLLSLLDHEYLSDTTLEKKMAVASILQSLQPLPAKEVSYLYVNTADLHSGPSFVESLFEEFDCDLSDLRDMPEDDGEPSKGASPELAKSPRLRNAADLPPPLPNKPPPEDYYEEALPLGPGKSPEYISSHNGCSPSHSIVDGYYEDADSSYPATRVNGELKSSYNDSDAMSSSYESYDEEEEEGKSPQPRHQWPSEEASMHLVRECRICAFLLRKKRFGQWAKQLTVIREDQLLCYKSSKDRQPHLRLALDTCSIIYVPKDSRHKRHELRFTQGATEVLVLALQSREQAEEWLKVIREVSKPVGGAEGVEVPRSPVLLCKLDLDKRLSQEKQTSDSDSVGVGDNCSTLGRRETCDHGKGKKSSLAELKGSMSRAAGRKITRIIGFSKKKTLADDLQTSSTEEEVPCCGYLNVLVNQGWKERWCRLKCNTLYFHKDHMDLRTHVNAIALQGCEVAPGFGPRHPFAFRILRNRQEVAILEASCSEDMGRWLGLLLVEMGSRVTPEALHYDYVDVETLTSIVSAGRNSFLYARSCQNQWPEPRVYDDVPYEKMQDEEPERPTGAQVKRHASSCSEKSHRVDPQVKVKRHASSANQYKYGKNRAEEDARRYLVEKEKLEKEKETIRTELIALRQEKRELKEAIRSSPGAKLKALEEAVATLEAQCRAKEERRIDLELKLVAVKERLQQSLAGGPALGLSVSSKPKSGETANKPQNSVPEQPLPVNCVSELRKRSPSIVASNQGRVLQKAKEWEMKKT
UniProt Q9UKU0: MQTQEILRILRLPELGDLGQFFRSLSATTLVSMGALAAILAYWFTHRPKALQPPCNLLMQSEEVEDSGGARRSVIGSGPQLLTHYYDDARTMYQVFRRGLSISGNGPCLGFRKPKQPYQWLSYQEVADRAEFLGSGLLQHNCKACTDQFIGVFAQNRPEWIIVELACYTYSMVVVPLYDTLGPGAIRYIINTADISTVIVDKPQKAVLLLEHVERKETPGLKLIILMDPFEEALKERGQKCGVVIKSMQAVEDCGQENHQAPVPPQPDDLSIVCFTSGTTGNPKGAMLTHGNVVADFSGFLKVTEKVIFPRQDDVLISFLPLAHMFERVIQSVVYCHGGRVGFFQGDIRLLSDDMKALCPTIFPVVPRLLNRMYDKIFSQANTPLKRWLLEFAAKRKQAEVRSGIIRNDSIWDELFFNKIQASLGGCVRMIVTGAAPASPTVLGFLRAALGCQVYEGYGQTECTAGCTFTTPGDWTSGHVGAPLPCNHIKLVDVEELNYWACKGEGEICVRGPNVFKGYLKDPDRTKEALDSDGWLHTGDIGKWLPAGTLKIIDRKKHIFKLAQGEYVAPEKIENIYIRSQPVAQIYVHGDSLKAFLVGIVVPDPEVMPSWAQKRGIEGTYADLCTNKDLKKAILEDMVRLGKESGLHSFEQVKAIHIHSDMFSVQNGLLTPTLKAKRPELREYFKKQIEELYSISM
UniProt P35612: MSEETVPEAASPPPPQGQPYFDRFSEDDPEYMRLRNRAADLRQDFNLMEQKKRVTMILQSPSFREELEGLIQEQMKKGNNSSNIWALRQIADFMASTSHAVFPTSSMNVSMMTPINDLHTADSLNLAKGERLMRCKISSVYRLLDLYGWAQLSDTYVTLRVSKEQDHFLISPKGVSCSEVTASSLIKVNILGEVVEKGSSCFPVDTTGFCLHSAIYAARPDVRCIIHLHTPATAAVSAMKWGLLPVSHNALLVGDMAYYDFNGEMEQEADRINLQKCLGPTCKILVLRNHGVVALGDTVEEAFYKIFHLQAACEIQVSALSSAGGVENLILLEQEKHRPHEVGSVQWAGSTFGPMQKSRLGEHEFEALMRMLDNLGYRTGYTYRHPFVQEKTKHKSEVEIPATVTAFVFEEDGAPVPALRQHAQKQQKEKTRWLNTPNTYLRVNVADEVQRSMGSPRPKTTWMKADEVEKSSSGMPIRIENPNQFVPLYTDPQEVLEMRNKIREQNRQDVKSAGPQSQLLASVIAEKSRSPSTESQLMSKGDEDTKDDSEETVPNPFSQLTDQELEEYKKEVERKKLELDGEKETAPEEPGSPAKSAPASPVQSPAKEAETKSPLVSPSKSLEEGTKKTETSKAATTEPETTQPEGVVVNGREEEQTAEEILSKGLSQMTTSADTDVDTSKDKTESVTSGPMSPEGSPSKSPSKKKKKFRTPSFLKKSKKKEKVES
UniProt Q03154: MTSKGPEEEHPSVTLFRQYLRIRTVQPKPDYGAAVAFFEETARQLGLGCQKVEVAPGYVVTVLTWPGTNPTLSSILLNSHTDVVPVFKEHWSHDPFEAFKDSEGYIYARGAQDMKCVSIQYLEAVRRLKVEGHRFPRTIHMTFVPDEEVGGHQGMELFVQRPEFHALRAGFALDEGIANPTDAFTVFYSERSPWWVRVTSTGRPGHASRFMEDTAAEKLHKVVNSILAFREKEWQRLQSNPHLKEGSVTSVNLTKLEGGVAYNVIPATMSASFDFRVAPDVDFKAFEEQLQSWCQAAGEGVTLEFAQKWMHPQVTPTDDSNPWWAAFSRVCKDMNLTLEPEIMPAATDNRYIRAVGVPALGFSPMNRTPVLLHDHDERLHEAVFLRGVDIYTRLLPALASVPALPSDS
UniProt Q13155: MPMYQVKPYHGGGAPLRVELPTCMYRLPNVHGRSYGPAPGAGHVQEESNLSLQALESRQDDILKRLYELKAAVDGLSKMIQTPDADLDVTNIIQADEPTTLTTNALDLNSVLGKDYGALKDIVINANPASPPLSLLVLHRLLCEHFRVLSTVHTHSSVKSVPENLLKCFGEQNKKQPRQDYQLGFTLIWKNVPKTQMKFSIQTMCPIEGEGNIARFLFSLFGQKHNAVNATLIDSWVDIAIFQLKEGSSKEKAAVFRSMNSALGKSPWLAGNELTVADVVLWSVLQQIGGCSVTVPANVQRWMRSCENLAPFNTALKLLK
UniProt Q9UEY8: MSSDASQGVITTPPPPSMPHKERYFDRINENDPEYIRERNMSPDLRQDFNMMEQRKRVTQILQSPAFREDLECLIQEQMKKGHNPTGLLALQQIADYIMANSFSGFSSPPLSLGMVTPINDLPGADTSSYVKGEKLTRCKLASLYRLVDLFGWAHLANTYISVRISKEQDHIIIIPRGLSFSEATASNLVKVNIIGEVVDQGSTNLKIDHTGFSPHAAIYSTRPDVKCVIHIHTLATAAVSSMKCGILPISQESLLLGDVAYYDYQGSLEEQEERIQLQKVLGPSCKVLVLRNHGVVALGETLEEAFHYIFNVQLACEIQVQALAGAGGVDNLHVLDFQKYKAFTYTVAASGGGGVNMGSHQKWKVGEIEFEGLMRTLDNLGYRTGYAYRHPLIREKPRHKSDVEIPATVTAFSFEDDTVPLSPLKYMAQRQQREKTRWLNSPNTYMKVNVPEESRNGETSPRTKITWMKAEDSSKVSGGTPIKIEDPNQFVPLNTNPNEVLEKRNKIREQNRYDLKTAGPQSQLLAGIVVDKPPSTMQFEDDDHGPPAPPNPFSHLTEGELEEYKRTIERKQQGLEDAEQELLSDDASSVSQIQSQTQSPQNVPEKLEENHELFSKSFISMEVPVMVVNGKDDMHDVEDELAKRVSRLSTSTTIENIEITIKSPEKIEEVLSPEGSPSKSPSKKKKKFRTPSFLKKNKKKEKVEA
UniProt Q96M93: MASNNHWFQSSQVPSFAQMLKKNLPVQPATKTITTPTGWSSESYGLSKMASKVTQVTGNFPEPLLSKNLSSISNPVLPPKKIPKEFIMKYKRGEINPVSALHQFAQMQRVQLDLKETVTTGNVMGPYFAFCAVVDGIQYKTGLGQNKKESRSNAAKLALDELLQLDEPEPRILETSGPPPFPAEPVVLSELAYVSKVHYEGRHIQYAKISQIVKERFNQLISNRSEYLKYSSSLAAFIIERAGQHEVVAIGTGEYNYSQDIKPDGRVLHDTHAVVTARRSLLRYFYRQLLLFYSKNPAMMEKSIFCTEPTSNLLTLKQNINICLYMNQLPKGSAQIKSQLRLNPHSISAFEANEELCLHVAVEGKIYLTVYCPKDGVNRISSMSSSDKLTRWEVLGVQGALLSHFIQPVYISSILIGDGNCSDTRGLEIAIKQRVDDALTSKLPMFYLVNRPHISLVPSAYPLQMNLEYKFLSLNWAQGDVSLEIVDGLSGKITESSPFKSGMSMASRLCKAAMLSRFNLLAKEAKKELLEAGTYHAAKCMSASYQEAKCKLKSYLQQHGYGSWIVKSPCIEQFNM
UniProt Q9NZD4: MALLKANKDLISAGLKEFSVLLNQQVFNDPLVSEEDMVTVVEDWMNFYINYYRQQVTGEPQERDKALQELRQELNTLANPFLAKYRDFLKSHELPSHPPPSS

Compound: O=C(O)c1ccc2c(c1)nc(Nc1cccc(Cl)c1)c1ccncc12 [silmitasertib]
Test: log2 fold change, soluble protein after heating vs DMSO (PISA); higher = thermal stabilisation; K562 lysate, 10 uM; active = over 0.2 and 3.5 SD of the protein, either way, in both replicates (recomputed)
How it was run: (§1)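 K562 pellets were dounce-homogenised in PBS pH 7.4 containing 1 mM MgCl2, and the crude extract, at 1 mg/mL protein, was exposed to 10 μM compound for 30 min. Aliquots were heated for 3 min across 48°C-58°C, pooled, brought to 0.5% NP-40 at 4°C and spun at 21,000xg for 90 min, with the supernatant taken as soluble protein. TMTpro 16plex LC-MS/MS with equalised channel sums quantified that protein. Values are log-two fold changes in thermal stability relative to solvent controls, taken from duplicates.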

log2 fold change, inactive:
AIF1L (UniProt Q9BQI0) 0.083
ACP5 (UniProt P13686) -0.125
AHI1 (UniProt Q8N157) 0.066
AKR1C1 (UniProt Q04828) 0.133
ADAMTSL4 isoform 3 (UniProt Q6UY14) -0.009
AEBP2 (UniProt Q6ZN18) 0.019
AGPAT4 (UniProt Q9NRZ5) -0.022
AKAP17A (UniProt Q02040) 0.321
ADAM15 (UniProt Q13444) 0.055
AKAP10 (UniProt O43572) -0.047
ADD1 isoform 4 (UniProt P35611) -0.148
AFG1L (UniProt Q8WV93) 0.138
ADCY3 (UniProt O60266) -0.042
ADSL (UniProt P30566) 0
ACSL5 isoform 3 (UniProt Q9ULC5) 0.082
AHCTF1 isoform 2 (UniProt Q8WYP5) 0
AFAP1L1 (UniProt Q8TED9) -0.019
ACSL6 isoform 1 (UniProt Q9UKU0) 0.188
ACTR8 (UniProt Q9H981) 0.092
ADCY7 (UniProt P51828) 0.051
ADD2 isoform 9 (UniProt P35612) 0.126
ACY1 (UniProt Q03154) -0.018
ACTN2, A0A494C031 0.073

Compound: O=C1NC(=O)C(c2cnc3ccccn23)=C1c1cn2c3c(cc(F)cc13)CN(C(=O)N1CCCCC1)CC2
Test: as above
How it was run: as §1

log2 fold change, inactive:
AIF1L (UniProt Q9BQI0) 0.022
ADAMTSL4 isoform 3 (UniProt Q6UY14) 0.117
AIMP2 isoform 2 (UniProt Q13155) -0.07
AEBP2 (UniProt Q6ZN18) -0.019
AGPAT4 (UniProt Q9NRZ5) -0.023
AKAP17A (UniProt Q02040) -0.057
ADAM15 (UniProt Q13444) 0.004
AKAP10 (UniProt O43572) -0.09
AFG1L (UniProt Q8WV93) 0.082
ADSL (UniProt P30566) -0.017
ACSL5 isoform 3 (UniProt Q9ULC5) -0.037
ADCK5 (UniProt Q3MIX3) 0.017
AFAP1L1 (UniProt Q8TED9) -0.087
AKR7L (UniProt Q8NHP1) 0.031
ACSS1 (UniProt Q9NUB1) -0.036
ADD3 isoform 2 (UniProt Q9UEY8) 0.008
AFDN (UniProt H0Y948) 0.233
ACTN4 (UniProt K7EJH8) -0.028
AJUBA (UniProt Q96IF1) -0.024
AFMID isoform 2 (UniProt Q63HM1) -0.118
ADPRM (UniProt Q3LIE5) 0.233
ACY1 (UniProt Q03154) -0.048
ACTN2, A0A494C031 0.213
ACTB (UniProt C9JTX5) -0.098

Compound: c1cn2cc(-c3ccc4cn[nH]c4c3)nc(Nc3ccc(N4CCOCC4)cc3)c2n1 [entospletinib]
Test: as above
How it was run: as §1

log2 fold change, inactive:
AIF1L (UniProt Q9BQI0) 0.116
AHI1 (UniProt Q8N157) 0.08
AKR1C1 (UniProt Q04828) 0.026
ADAD1 (UniProt Q96M93) -0.028
AGPAT4 (UniProt Q9NRZ5) 0.224
AFM (UniProt P43652) 0.061
AKAP10 (UniProt O43572) -0.026
ADD1 isoform 4 (UniProt P35611) 0.056
AFG1L (UniProt Q8WV93) -0.016
ACTG1 (UniProt K7EM38) -0.453
ADSL (UniProt P30566) 0.019
ADCK5 (UniProt Q3MIX3) 0.092
ACOX3 (UniProt O15254) -0.011
AFAP1L1 (UniProt Q8TED9) 0.003
AHSP (UniProt Q9NZD4) 0.039
ACTR8 (UniProt Q9H981) 0.083
ACSS1 (UniProt Q9NUB1) -0.019
ACTN4 (UniProt K7EJH8) 0.06
AFMID isoform 2 (UniProt Q63HM1) 0.021
ADD2 isoform 9 (UniProt P35612) -0.022
ADPRM (UniProt Q3LIE5) -0.114
ACY1 (UniProt Q03154) 0.004
ACTN2, A0A494C031 -0.215
ADCK1 (UniProt Q86TW2) 0.13
